Measurements reported in PubChem BioAssay (EPA / NIEHS).
Inconclusive means that the source gave no clear call. Such entries were picked first, then a sample of the others. Potencies beside an inconclusive call are fits to weak or partial responses and may not hold up. Calls of active or inactive are those of the source. Rule for the calls: active = hit-call score of the fitted dose curve at least 0.9, where 1 is the maximum; inconclusive = response in the unintended direction; inactive = score below 0.9.

What follows are compounds tested on SRY-box transcription factor 17 (SOX17) Protein Expression, Deisenroth Lab, SOX17 (gene 64321) (assay: CCTE_Deisenroth_DEVTOX-GLR_Pluri_SOX17: CCTE's DevTox GLR-Pluri Assay Evaluation of SRY-box transcription factor 17 (SOX17) Protein Expression, Deisenroth Lab (AID 2284427)).
Method in brief: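 RUES2-GLR human pluripotent cells were seeded 24 h, then differentiated 48 h in defined media with two chemical exposures 24 h apart (10-point series, 1 nM - 200 uM). Fixed, nuclear-stained cells were imaged; %SOX17+ cells minus 0.2% DMSO control reported.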

Structure (SMILES) | AC50
Nc1nc2ncc(CNc3ccc(C(=O)N[C@@H](CCC(=O)O)C(=O)O)cc3)nc2c(=O)[nH]1 | inconclusive: 0.8 µM
O=C1CCC(N2C(=O)c3ccccc3C2=O)C(=O)N1 (stereo not drawn) | inconclusive: 100 µM
COc1ccc2c(c1)c(CC(=O)O)c(C)n2C(=O)c1ccc(Cl)cc1 | active: 2.61 µM
